Tests used:
Assay type in all cases: functional
[1] = system: Escherichia coli; test: Antibacterial activity against Escherichia coli MTCC 443 at 20 ug after 24 hrs by cup diffusion method
Outline: (§1)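 Agar cup diffusion. Plates of sterile medium in 9 cm dishes were seeded with 1 × 10⁵ cfu of bacteria, with the suspension adjusted to at least 1 × 10⁵ cfu/ml in nutrient broth. Compound in DMF was placed in 5 mm cups and pre-diffused for 1 h. Plates were incubated at 37 °C for 24 h and the inhibition zone measured in mm. DMF served as negative control.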

[2] = system: Pseudomonas aeruginosa; test: Antibacterial activity against Pseudomonas aeruginosa MTCC 1688 at 20 ug after 24 hrs by cup diffusion method; outline: as §1
[3] = system: Staphylococcus aureus; test: Antibacterial activity against Staphylococcus aureus MTCC 737 at 20 ug after 24 hrs by cup diffusion method; outline: as §1
[4] = system: Aspergillus niger; test: Antifungal activity against Aspergillus niger at 20 ug after 48 hrs by cup diffusion method
Outline: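 Cup diffusion on 9 cm plates seeded with 1 × 10⁶ cfu of fungi, with spores adjusted to at least 1 × 10⁶ cfu/ml in potato dextrose broth. Compound in DMF was placed in 5 mm agar cups and left 1 h to diffuse. Plates were incubated at 28 °C for 48 h and the inhibition zone read in mm. DMF was the negative control.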

Sequence | inhibition zone (IZ) [1] [mm] | inhibition zone (IZ) [2] [mm] | inhibition zone (IZ) [3] [mm] | inhibition zone (IZ) [4] [mm]
GENTAMICIN | 10.2 | 12.6 | 24.6 | –
NYSTATIN | – | – | – | 11.5

From ChEMBL document CHEMBL1152843, “Synthesis of new series of 5,6-dihydro-4H-1,2-oxazines via hetero Diels-Alder reaction and evaluation of antimicrobial activity” (2009)
